The values below come from article PMC7819943, “Rice protein-binding microarrays: a tool to detect cis-acting elements near promoter regions in rice”.

By UniProt entry, the sequences of proteins in these tests, tags left out.
UniProt Q0JBA9, entry or part of it: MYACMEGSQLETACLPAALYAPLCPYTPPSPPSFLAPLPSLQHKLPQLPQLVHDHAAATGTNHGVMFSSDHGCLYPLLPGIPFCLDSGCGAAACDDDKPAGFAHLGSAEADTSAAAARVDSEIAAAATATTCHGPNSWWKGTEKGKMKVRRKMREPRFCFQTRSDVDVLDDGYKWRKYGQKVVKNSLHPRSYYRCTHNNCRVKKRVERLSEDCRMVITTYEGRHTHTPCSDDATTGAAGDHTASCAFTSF

This is one part of the list.

This assay concerns the target OsWRKY34 (Oryza sativa, UniProt Q0JBA9 1-250). Nature of the assay: protein-binding microarray (RPBM); PBS, 2% BSA, 51.3 ng/ul salmon testes DNA, 50 uM zinc acetate, 200 nM TF, 25 C, 1 h; high values mean tight binding. To be noted: protein: recombinant; tags: N-terminal polyhistidine and DsRed monomer fusion (pET32a); label: CyDye5-dUTP incorporated in the synthesized complementary strand; 3' TTTTT single-stranded linker to array surface; dsDNA, one strand shown. Summed up: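 In PBS with 2% BSA, salmon testes DNA and 50 µM zinc acetate, 200 nM protein was incubated on a custom Agilent array at 25 °C for 1 h and then washed off. The array had been made double-stranded by primer extension with Cy5-dUTP and blocked with 2% BSA. The proteins were transcription factors fused N-terminally to polyhistidine and DsRed, expressed in E. coli BL21-CodonPlus and purified on Ni–NTA. The binding signal is per-feature fluorescence intensity (arbitrary units) from an Axon 4000B scanner.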
As to “GCATCCCGCGCGCCTCCTTTCCCTCCCGACCTCACCTCTCCGGAGTCACCTAGTGCAG”, the binding signal was 12400 fluorescence intensity (a.u.).
For the sequence “TAACTGTTTGTTTGCTACATTTATGATTATTTTAGAATTTCGGAGTCACCTAGTGCAG”, the binding signal was 8250 fluorescence intensity (a.u.).
In the case of “GGGGCAGAGACAGAGAGCGTGAGGATGCGGGTGGGGACGCCGGAGTCACCTAGTGCAG”, the binding signal is 10200 fluorescence intensity (a.u.).
Take “TTACGCTGTCACTTGCTCACTTCCCATGTGACCAAAATCTCGGAGTCACCTAGTGCAG”: the binding signal is 8840 fluorescence intensity (a.u.).
“AATGCTTTTGTCTTTTTGATGGTGTCAATATGCTGGTCTTCGGAGTCACCTAGTGCAG”: the binding signal is 8240 fluorescence intensity (a.u.).
Then “GCCGTCGCTCACGCTCGCTTCCGACTCCCTTGCTCCGCCGCGGAGTCACCTAGTGCAG”, with 10500 fluorescence intensity (a.u.); and “TGTCTCGATTCATGGTTCACCGTTCTATACGATGGAGCTGCGGAGTCACCTAGTGCAG”, with 9170 fluorescence intensity (a.u.); and “CGTTTTTCATATAATTGGTTTCACAGCAGCGCGTCATTTTCGGAGTCACCTAGTGCAG”, with 9260 fluorescence intensity (a.u.).
Then “CCGTTTCCGTTTCCGTTTCATATCATAAATTGTTTTAATTCGGAGTCACCTAGTGCAG”, with 10300 fluorescence intensity (a.u.); and “GTAGAATCATTTTTTTTTCACCAATGTTTGAATTCAAATACGGAGTCACCTAGTGCAG”, with 10100 fluorescence intensity (a.u.); and “CCTCCACGCAACGGAAACCACACCACACCCCGATACGACTCGGAGTCACCTAGTGCAG”, with 8320 fluorescence intensity (a.u.).
Regarding “CAATTCCCACGCGGTCGCTGAGCTCAGTTTCACAGTTTTCCGGAGTCACCTAGTGCAG”, the binding signal is 10800 fluorescence intensity (a.u.).
“ACAGTATCCCCATATTACTTGCACACTGGCTGGCACACTGCGGAGTCACCTAGTGCAG”: the binding signal is 9720 fluorescence intensity (a.u.).
Take “GCCTTAACTCCAGCGCCCGTGTCTCCGTCTCCGATTCCCCCGGAGTCACCTAGTGCAG”: the binding signal is 9010 fluorescence intensity (a.u.).
Regarding “CATCGGGGTCGTTGTGCTGCTCGGAAATTGAGTTCGTTCCCGGAGTCACCTAGTGCAG”, the binding signal is 8810 fluorescence intensity (a.u.).
For the sequence “CATCTCTCCTGTGTTTTCCTCAAGTTTAGCTTACAGCTATCGGAGTCACCTAGTGCAG”, the binding signal is 10300 fluorescence intensity (a.u.).
With “TCATCCCACTCACTTTGTTTCATATTATAAATCATTTGACCGGAGTCACCTAGTGCAG”, the binding signal was 8190 fluorescence intensity (a.u.).
For the sequence “CTATTGTATCGGCTCTGGGAATATCCCAACATCCATGTGACGGAGTCACCTAGTGCAG”, the binding signal was 8410 fluorescence intensity (a.u.).
Consider “ATTTAATTTTTTGCTCCTTAGTGTTTATATGCTGAATTGTCGGAGTCACCTAGTGCAG”, for which the binding signal is 8040 fluorescence intensity (a.u.).
As for “CCACGCGCTGCCTCCGCACCTCCCAGTACAGCCCGCCGACCGGAGTCACCTAGTGCAG”, the binding signal is 8360 fluorescence intensity (a.u.).
For “AGTTTGGGAGGAGGAGGGGAAAAAATCGCGATCAGGAAAACGGAGTCACCTAGTGCAG”, the binding signal is 8280 fluorescence intensity (a.u.).
Take “CCAAGCCGCGCCACCACCGGCAACGCCACCTCTTGAGTCGCGGAGTCACCTAGTGCAG”: the binding signal is 8760 fluorescence intensity (a.u.).
Then “ATGTCCCCTGCGACCATCTCTTTGTTAATTATACTAGTTTCGGAGTCACCTAGTGCAG”, with 10700 fluorescence intensity (a.u.); and “CTTGAAGGACCTTGTTTGGATACATTCATCTCGCCTTTTCCGGAGTCACCTAGTGCAG”, with 8780 fluorescence intensity (a.u.); and “ACATTCAAATTTTGGAGTTTTTTTTATCTTTTCGTTATCCCGGAGTCACCTAGTGCAG”, with 8610 fluorescence intensity (a.u.).
“CTTCCTGGGCGCCATCCGCGTCGCCGCCACCAACATCACGCGGAGTCACCTAGTGCAG”: the binding signal was 8880 fluorescence intensity (a.u.).
In the case of “CTCTGGGGCTCTGGGCAGGGCAACCAGCGGGTGGGGAGGACGGAGTCACCTAGTGCAG”, the binding signal was 10300 fluorescence intensity (a.u.).
“AGGAGGCGACGGCGGAGGAGGTGGTGGTGGTGGTGGTGGTCGGAGTCACCTAGTGCAG”: the binding signal is 15400 fluorescence intensity (a.u.).
In the case of “CGCCATGTTCTCTCCAGTTCCCACCTAATATCTGAGGATACGGAGTCACCTAGTGCAG”, the binding signal was 9850 fluorescence intensity (a.u.).
Take “GATGCATTTTTGTCTGGGCGTTGTCCTTGTGGAAGCATCTCGGAGTCACCTAGTGCAG”: the binding signal was 10000 fluorescence intensity (a.u.).
The value for “CTCTACCGCTGCCGCCACCTCGCGTCTCCTCCGCCTCCCCCGGAGTCACCTAGTGCAG” was 9290 fluorescence intensity (a.u.); that for “ACAATTGTCCATATTGTGTCCAAAGCACACACTGCTTTCACGGAGTCACCTAGTGCAG” was 9160 fluorescence intensity (a.u.).
For the sequence “TCTCTTTGTCCTCGAGCTCAAATTGAGGCTATGTTCGTCTCGGAGTCACCTAGTGCAG”, the binding signal was 9580 fluorescence intensity (a.u.).
With “GGGGTGCTAATGAGACTAATTTTGTGTGGGGACCATTAAACGGAGTCACCTAGTGCAG”, the binding signal was 9800 fluorescence intensity (a.u.).
The value for “TCGCTGTTATAAGCTCTCCTCTAGCTCGTCCTCATCCAAACGGAGTCACCTAGTGCAG” was 8410 fluorescence intensity (a.u.); that for “CCTTGCCGCCGATCGTCTTCGACTACGCGTTTACGCCATCCGGAGTCACCTAGTGCAG” was 9130 fluorescence intensity (a.u.); that for “TGGTATATTTGGTTGTTGCTTTGACTTGATATCTGAATAACGGAGTCACCTAGTGCAG” was 11000 fluorescence intensity (a.u.).
The value for “TATACACATAAACTTTCAACTTTTCCGTCATATCGTTTCACGGAGTCACCTAGTGCAG” was 8120 fluorescence intensity (a.u.); that for “CTTTAACTAATTTTTTTTTACTTTGGACTATTGTCGATAACGGAGTCACCTAGTGCAG” was 8200 fluorescence intensity (a.u.); that for “TTTTGGTTTTATGAGGCGGTGGATGGATACTTGTTACACTCGGAGTCACCTAGTGCAG” was 10300 fluorescence intensity (a.u.).
In the case of “TGGATACTTAGCAATTCATTCTATGCTCTGACTTTATTTCCGGAGTCACCTAGTGCAG”, the binding signal was 9800 fluorescence intensity (a.u.).
In the case of “CTCCTTCCATTTTACGATACTGCCACCTGAGGTCAACAACCGGAGTCACCTAGTGCAG”, the binding signal is 8260 fluorescence intensity (a.u.).
